# Results taken from article PMC6479349, “Derivatives of 3-Aminopyrazine-2-carboxamides: Synthesis, Antimicrobial Evaluation, and in Vitro Cytotoxicity” (Molecules, 2019).
# Tests used:
# [1] = tested on: Aspergillus fumigatus ATCC 204305; test: Antifungal microdilution broth MIC; conditions: ATCC204305, 48 h, read-out: MIC Aspergillus fumigatus (standards)
# [2] = tested on: Candida albicans CCM 8320; test: Antifungal microdilution broth MIC; conditions: CCM8320, 48 h, read-out: MIC Candida albicans (standards)
smiles,measurement,setting,value
C[C@@H]1[C@H](O)[C@@H](C)/C=C/C=C/C=C/C=C/C=C/C=C/C=C/[C@H](O[C@@H]2O[C@H](C)[C@@H](O)[C@H](N)[C@@H]2O)C[C@@H]2O[C@](O)(C[C@@H](O)C[C@@H](O)[C@H](O)CC[C@@H](O)C[C@@H](O)CC(=O)O[C@H]1C)C[C@H](O)[C@H]2C(=O)O [amphotericin B],MIC,[1],1 µg/mL
same,MIC,[2],0.5 µg/mL
